Source: ChEMBL document CHEMBL3988442, “University of Dundee, Small-Polar-MMV Screening Library” (2021).

Amino acid sequences for entries named in this document (tags omitted).
UniProt E9BF75, entry or part of it: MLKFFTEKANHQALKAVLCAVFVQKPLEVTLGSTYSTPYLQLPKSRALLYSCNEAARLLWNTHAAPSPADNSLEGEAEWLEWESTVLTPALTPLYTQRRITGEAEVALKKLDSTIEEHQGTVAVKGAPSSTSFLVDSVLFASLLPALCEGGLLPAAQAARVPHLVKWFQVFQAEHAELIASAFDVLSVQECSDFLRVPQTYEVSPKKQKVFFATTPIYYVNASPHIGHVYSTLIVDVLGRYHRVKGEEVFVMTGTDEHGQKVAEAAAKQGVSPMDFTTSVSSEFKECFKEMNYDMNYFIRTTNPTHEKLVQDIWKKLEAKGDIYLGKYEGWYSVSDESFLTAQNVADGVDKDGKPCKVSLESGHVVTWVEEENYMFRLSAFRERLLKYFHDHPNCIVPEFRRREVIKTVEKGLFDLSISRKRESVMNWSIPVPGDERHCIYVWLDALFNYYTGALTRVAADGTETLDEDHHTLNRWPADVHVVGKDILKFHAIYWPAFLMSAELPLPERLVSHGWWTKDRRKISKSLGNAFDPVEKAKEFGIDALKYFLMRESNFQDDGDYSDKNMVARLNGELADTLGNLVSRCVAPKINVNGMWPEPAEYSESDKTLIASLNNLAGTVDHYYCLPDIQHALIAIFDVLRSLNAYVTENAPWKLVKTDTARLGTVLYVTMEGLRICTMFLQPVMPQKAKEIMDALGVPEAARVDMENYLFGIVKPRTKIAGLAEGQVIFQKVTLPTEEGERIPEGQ

A: 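Assay on Mycobacterium tuberculosis, filed only as a heat shock assay from Cornell; the read-out is not stated. The concentration is filed as 10 mM, unlikely as a test dose, so the dose is not known. The record gives no direction; compounds that gave an IC50 in retests scored well above the rest, so higher reads as stronger inhibition. About 69,000 compounds were tested under these conditions; 1.4% (about 930) showed 50% or more at least once.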
B: 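Primary screen of methionyl-tRNA synthetase; the read-out is not stated. Target: Methionyl-tRNA synthetase (putative), Leishmania donovani (UniProt E9BF75). The test concentration is not given. Values are per cent inhibition. Size under these conditions: about 68,000 compounds, about 24 of them at 50% or above in at least one test.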
C: 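Whole-cell assay for inhibitors of Mycobacterium tuberculosis growth, labelled Cornell in the record; the read-out is not stated. The concentration is filed as 10 mM, unlikely as a test dose, so the dose is not known. Higher means stronger inhibition (inferred from two other growth screens of the library). Of about 53,000 compounds tested this way, about 900 (1.7%) reached 50% or more in at least one test.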

All values are in %. The controls that fix the scale are not given in the record; negative values are as filed. The compounds are a random part of those screened. A dash means the value is not listed here; it may have been measured.

- O=C(CCNC(=O)c1ccoc1)Nc1cc(F)cc(F)c1 | A: 21.28%; B: 13.4%; C: 15.32%
- Cc1cnn(CCNCC(=O)NCCOc2ccc(F)cc2)c1 | A: -20%; B: 14.86%; C: 2.113%
- Cc1c(CN2CCCC(C(=O)c3ccccc3)C2)cc(C#N)n1C (centres undefined) | A: 10.93%; B: 2.892%; C: 15.76%
- CCC(=O)Nc1cccc(OCC(=O)N(C)Cc2nccn2CC)c1 | A: -40.99%; B: 15.47%
- CCc1ccc(C(=O)N2CC[C@H](Oc3cccnc3C)[C@@H](O)CC2)cc1 | A: -13.4%; B: 0.7059%
- CC(C)C(=O)N1CCc2nc(C(=O)Nc3cccnc3)sc2CC1 | A: -9.864%; B: 19.71%; C: -11.18%
- CN1CCN(CC2CN(CC3CC3)Cc3nccn3C2)CC1.O=C(O)C(F)(F)F.O=C(O)C(F)(F)F.O=C(O)C(F)(F)F (centres undefined) | A: -11.65%; C: 14.25%
- CN(CC(=O)N(C)C1CC1)C1CCN(c2ccc(Cl)cc2)CC1 | A: -9.303%; B: 2.405%
- Cc1nnc(NC(=O)NCC(C)N2CCOCC2)s1 (centres undefined) | A: -23.17%; B: 10.48%
- Cc1cnn(CC2CN(Cc3nc4ccccc4n3C)CCO2)c1 (centres undefined) | A: -14.39%; B: 8.287%
- COc1ccc(C(C(=O)O)N2CCN(C3CCCC3)CC2)cc1C (centres undefined) | A: -12.46%
- O=C(O)C(F)(F)F.[H][C@@]12COC[C@]1(CNC(=O)c1ccco1)CN(Cc1sccc1C)C2 | A: 4.69%; C: 3.249%
- CN(C1CCCCC1)S(=O)(=O)N1CCN(Cc2ccon2)CC1 | A: -28.36%; B: 11.02%; C: 27.01%
- Cc1ncsc1C(=O)N1CCCC(c2cc(C(F)F)n3ncnc3n2)C1 (centres undefined) | A: -3.001%; B: 2.083%; C: -28.15%
- CCCN(CC1COc2ccccc2O1)C(=O)CCn1cncn1 (centres undefined) | A: 9.786%; B: 23.47%
- Cc1cnn(CC(=O)N2CCCN(Cc3cnn(C(C)C)c3)CC2)c1 | A: -7.868%; B: 21.67%; C: -17.41%
- COc1nccc(N2CC[C@@H](N3CCN(C)CC3)[C@H](O)C2)c1C#N | A: -14.39%; B: 8.757%; C: 23.57%
- COCC1(C(=O)N2CCC(c3nccn3CC3CC3)CC2)CCC1 | A: -22.2%; B: 10.7%; C: -1.825%
- CN(C)S(=O)(=O)N1CC[C@]2(O)CCN(c3nc4ccccc4s3)C[C@@H]2C1 | B: 16.84%
- O=C(O)C(F)(F)F.[H][C@]12CCCN(CC3CCOCC3)[C@@]1([H])CN(C(=O)c1ccco1)C2 | A: 5.441%; C: -1.909%
- COc1ccccc1-n1cc(C(=O)NCCn2nc(C)nc2C)cn1 | A: -3.077%; B: 1.309%; C: -2.163%
- COCCn1cc(C(=O)N2CCCC2c2noc(C)n2)ccc1=O (centres undefined) | A: -25.31%; B: -0.3344%; C: -18.67%
- Cc1cc(C)n(CCC2CC(=O)Nc3cc(O)c(C)cc32)n1 (centres undefined) | A: 33.85%; B: 11.85%; C: -2.34%
- Cc1[nH]ccc1C(=O)NC1CCC(N2C(=O)CCC2=O)CC1 (centres undefined) | A: -3.586%; B: 14.39%; C: 34.64%
- CN1C(=O)C2(CCNCC2)c2cc(F)ccc21 | B: 8.964%
- CCn1c(N)nc2cc(C(=O)N3CCN(CC(F)(F)F)CC3)cnc21 | A: 11.2%; B: 5.955%; C: 26.56%
- O=C1NC2(Cc3ccccc31)CN(CC1CCNCC1)C2 | A: -19.58%; B: 5.714%
- [H][C@@]12NC(=O)N[C@@H](c3ccccc3)[C@]1([H])CCCO2 | A: 11.46%; C: -38.71%
- CCS(=O)(=O)N1CC[C@H]2[C@H]1CC(=O)N2Cc1csc(C)n1 | B: 19.02%
- C[C@@H]1CN(C(=O)NC2CC2)C[C@]12CCN(c1ccsc1)C2=O | A: 3.655%; B: 19.16%
- O=C(CSc1nnc2n1N=CN(c1ccccc1)C2)c1ccccc1 | A: 18.77%; B: 15.79%; C: 19.39%
- O=C(CCCc1ccccn1)N1CCCC1c1noc(C2CC2)n1 (centres undefined) | A: -6.141%; B: 9.117%; C: 7.723%

The last 3 entries again:

SMILES	A	B	C
C[C@@H]1CN(C(=O)NC2CC2)C[C@]12CCN(c1ccsc1)C2=O	3.655	19.16	-
O=C(CSc1nnc2n1N=CN(c1ccccc1)C2)c1ccccc1	18.77	15.79	19.39
O=C(CCCc1ccccn1)N1CCCC1c1noc(C2CC2)n1 (centres undefined)	-6.141	9.117	7.723